These results are taken from the supplement of paper PMC11006884.

Sequences of proteins named here, by UniProt entry; tags and fusion partners are left off. A change or cut given only in a name is not applied to a line headed by its entry.
UniProt Q8N1G4: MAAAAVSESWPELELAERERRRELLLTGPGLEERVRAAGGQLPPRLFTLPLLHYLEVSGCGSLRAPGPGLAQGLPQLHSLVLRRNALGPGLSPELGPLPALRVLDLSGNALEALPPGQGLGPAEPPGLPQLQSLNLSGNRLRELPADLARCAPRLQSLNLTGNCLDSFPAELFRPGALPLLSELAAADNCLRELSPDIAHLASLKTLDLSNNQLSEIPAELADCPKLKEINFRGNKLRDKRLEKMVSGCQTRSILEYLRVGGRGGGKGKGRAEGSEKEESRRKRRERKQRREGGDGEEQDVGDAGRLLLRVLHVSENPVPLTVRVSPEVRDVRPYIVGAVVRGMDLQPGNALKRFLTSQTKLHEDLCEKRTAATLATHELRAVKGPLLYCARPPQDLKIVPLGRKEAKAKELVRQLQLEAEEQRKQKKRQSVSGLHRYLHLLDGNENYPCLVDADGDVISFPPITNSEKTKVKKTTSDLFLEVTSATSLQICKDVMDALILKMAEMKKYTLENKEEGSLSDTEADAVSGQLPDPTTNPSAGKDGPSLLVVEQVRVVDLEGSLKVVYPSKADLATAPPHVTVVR
UniProt Q8NB37: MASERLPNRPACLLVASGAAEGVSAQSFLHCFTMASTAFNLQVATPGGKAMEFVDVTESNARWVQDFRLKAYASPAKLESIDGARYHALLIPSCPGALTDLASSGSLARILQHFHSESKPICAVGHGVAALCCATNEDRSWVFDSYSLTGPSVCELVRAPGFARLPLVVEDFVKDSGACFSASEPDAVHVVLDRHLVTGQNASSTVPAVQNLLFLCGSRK
UniProt Q8N3P4: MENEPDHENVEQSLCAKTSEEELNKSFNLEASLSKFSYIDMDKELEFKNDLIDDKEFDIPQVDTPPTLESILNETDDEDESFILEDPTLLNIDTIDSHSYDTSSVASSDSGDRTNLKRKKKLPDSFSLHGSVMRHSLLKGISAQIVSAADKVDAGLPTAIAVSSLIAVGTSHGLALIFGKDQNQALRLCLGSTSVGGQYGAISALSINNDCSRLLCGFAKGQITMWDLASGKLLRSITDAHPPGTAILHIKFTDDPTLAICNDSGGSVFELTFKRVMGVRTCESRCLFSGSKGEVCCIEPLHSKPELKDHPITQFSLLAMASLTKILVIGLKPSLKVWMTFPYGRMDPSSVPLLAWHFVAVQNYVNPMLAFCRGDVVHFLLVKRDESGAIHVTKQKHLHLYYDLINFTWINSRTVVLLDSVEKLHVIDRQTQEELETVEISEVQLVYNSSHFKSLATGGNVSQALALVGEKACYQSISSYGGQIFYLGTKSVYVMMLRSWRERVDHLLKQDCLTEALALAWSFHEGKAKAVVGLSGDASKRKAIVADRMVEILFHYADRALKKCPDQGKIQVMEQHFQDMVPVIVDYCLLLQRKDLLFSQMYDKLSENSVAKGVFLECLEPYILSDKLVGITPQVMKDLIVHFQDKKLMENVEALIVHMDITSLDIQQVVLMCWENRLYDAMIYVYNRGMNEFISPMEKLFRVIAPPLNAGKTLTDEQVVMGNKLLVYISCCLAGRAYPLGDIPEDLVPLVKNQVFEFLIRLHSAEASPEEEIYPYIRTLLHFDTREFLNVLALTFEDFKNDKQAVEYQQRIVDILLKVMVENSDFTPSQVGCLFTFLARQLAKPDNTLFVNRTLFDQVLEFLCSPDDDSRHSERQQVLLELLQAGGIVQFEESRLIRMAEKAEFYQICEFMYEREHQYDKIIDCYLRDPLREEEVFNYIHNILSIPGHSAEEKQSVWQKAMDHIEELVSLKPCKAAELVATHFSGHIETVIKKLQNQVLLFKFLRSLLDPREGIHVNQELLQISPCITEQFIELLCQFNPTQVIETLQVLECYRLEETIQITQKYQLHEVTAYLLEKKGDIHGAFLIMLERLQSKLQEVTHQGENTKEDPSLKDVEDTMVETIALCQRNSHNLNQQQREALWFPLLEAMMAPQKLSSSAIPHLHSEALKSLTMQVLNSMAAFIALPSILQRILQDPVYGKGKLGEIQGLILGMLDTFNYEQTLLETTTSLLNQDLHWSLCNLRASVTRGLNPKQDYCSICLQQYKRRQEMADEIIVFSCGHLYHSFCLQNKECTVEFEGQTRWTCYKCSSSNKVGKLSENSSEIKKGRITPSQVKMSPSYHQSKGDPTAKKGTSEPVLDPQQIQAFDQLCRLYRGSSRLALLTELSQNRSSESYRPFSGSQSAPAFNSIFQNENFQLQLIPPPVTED
UniProt Q8WV74: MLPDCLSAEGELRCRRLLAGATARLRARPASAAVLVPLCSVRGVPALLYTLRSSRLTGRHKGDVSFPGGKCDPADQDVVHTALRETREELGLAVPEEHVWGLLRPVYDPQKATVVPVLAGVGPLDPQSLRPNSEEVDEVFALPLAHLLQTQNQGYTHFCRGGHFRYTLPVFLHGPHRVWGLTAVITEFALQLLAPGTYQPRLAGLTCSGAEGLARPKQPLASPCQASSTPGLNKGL
UniProt Q8NEY8: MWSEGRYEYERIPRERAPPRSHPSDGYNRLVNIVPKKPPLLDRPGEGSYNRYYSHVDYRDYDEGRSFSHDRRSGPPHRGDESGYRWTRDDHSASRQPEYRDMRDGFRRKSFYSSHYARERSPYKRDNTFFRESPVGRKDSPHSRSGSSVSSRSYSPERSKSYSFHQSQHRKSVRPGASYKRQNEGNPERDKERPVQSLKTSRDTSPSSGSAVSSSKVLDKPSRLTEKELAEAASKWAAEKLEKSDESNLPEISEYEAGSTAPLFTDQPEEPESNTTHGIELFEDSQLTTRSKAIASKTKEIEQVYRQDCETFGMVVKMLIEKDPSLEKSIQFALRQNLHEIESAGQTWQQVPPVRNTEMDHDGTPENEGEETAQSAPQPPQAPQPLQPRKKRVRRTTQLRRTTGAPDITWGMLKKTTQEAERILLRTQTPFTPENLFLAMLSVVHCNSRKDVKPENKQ
UniProt Q8WUM4: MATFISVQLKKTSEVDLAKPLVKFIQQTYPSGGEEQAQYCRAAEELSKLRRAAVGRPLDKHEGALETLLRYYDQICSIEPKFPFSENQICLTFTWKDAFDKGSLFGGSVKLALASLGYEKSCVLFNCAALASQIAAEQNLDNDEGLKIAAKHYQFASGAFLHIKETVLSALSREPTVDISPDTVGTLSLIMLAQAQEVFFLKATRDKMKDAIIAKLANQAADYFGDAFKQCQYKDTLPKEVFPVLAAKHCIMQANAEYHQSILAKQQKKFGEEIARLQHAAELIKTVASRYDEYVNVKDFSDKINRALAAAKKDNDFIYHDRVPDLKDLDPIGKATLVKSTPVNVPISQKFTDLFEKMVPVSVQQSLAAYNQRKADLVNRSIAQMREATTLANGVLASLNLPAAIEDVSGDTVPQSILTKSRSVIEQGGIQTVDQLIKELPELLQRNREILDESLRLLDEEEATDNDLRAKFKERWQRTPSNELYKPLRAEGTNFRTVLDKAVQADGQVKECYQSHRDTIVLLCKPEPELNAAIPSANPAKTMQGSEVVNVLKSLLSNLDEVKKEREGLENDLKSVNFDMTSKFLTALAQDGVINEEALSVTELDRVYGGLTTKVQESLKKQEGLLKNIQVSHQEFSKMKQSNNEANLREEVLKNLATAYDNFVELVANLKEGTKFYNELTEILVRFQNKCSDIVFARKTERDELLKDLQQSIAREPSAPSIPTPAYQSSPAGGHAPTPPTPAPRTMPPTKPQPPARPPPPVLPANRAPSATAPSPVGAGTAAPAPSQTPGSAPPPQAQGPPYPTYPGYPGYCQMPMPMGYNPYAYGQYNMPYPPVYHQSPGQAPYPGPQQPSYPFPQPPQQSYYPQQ
UniProt Q8TDX7: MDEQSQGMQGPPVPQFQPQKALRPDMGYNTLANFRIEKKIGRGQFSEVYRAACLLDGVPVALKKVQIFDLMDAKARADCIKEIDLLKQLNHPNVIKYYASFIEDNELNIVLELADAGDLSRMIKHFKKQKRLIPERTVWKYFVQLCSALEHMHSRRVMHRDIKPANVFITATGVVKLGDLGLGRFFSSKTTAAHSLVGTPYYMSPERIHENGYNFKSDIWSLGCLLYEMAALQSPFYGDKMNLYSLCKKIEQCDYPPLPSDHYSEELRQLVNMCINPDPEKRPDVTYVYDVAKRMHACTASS
UniProt Q8WXK3: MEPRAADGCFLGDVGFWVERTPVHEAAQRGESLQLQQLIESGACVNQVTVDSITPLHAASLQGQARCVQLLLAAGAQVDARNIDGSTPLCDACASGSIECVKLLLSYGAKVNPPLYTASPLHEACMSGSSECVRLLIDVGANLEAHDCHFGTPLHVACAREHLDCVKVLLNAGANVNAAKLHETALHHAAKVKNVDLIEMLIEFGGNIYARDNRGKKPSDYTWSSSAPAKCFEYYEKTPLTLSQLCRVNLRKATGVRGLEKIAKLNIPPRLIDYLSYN
UniProt Q8N1G0: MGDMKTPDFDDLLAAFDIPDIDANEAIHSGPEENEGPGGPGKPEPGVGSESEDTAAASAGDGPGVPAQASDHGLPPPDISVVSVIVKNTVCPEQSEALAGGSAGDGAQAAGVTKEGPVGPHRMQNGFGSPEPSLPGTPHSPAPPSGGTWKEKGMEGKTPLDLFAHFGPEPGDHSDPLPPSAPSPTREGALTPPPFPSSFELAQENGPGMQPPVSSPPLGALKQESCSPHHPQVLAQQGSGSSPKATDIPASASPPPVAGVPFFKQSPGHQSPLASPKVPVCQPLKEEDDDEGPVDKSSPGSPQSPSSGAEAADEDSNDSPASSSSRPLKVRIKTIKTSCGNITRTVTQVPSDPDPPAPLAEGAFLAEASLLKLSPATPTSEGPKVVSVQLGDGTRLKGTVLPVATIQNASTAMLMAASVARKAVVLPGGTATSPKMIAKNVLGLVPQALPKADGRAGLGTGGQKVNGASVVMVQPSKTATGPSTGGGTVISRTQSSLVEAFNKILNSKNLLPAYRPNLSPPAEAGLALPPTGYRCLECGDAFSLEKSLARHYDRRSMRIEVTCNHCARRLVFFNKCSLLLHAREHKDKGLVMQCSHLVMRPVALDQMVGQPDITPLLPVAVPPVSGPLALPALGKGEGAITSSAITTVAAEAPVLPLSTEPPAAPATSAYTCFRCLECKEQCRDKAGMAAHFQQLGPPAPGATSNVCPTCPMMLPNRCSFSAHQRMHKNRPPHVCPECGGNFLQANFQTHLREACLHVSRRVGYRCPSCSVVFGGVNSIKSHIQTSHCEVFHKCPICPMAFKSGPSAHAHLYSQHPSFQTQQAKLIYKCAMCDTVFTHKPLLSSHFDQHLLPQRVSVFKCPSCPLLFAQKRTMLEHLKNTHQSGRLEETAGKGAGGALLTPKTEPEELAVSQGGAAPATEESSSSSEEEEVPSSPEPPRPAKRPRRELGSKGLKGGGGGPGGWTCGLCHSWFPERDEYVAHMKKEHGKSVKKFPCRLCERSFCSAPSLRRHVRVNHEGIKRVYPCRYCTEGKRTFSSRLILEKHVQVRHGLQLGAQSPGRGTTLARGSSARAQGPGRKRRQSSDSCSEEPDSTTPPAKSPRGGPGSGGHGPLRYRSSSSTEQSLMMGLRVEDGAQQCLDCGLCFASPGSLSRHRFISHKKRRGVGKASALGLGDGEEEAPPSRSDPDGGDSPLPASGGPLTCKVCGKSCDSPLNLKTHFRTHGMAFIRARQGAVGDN
UniProt Q8TF05: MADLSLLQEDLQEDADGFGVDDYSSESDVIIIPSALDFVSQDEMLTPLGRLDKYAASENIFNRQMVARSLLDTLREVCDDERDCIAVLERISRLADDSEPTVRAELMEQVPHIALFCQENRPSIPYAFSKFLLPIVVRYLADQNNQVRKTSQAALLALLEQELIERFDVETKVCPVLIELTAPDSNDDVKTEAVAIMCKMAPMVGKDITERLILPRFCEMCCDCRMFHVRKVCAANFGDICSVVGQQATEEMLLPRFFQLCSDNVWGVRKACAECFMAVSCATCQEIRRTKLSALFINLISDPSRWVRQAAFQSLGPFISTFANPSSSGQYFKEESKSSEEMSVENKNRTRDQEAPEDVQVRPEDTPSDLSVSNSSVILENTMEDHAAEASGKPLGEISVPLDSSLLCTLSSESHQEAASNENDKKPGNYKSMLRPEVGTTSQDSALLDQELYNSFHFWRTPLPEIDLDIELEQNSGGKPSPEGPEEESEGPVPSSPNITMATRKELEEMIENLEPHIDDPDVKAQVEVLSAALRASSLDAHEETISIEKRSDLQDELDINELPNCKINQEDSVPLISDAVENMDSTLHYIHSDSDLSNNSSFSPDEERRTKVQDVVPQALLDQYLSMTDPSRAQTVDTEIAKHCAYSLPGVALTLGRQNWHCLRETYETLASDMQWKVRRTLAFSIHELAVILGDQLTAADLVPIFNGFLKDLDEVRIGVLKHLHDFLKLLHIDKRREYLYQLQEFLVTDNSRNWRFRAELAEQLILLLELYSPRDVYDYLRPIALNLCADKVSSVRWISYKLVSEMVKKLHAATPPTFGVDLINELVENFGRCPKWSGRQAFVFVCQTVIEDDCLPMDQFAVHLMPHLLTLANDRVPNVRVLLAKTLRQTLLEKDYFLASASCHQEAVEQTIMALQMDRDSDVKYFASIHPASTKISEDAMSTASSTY

The list shows a part of the results, in another mix than the full data. The data scatter; read single values as rough.

Compound in the assay: COC(=O)/C=C/c1ccccc1 [methyl cinnamate]
In words: log2 ratio of iodoacetamide-alkyne labeling of the cysteine site, DMSO over compound (competition); higher = stronger covalent engagement of the cysteine by the compound, active = 1 or more. The note with it: 500 µM; treatment time 1 h; system: HEK293T cell lysate. The procedure, abridged: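 HEK293T lysate at 2 mg/mL was treated with vehicle or electrophile (500 µM) for 1 h at ambient temperature, then labelled with iodoacetamide alkyne (1 h), clicked to sCIP-TMT reagents, pooled, digested with trypsin overnight at 37 °C, enriched on streptavidin and eluted with acid. Peptides were analysed by Orbitrap Eclipse LC-MS/MS with FAIMS and quantified in FragPipe, using duplicate channels and three replicates, with cysteines quantified in only one replicate excluded. The log2 competition ratio for each cysteine is the mean control-channel reporter intensity divided by the mean compound-channel reporter intensity.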
In the case of LRRC47 C190 (UniProt Q8N1G4), the “log2 ratio of iodoacetamide-alkyne labeling” value (shortened to “log2 ratio”) is inactive: -0.176.
Take DDX1 C231 (UniProt Q92499): the “log2 ratio” value is inactive: 0.126.
As for PLA2G15 C355 (UniProt Q8NCC3), the “log2 ratio” value was inactive: 0.205.
Turning to UniProt Q8NB37_C154, the “log2 ratio” value is inactive: 0.304.
As for VPS8 C864 (UniProt Q8N3P4), the figure is inactive: -0.177; as for UniProt Q8NB37_C179, inactive: 0.175; as for SEC14L1 C258 (UniProt Q92503), inactive: -0.138.
For NUDT8 C224 (UniProt Q8WV74), the “log2 ratio” value is inactive: 0.347.
The same measure for PPHLN1 C309 (UniProt Q8NEY8): inactive: 0.2.
As for PDCD6IP C524 (UniProt Q8WUM4), the figure is inactive: 0.0858; as for SLC20A1 C426 (UniProt Q8WUM9), inactive: 0.208.
The same measure for AHCTF1 C1131 (UniProt Q8WYP5): inactive: 0.167; for NEK7 C53 (UniProt Q8TDX7): inactive: 0.0759; for UniProt Q8WVV9_C103: inactive: -0.252.
With UniProt Q8WXK3_C9, the “log2 ratio” value is inactive: 0.416.
As for SERBP1 C11 (UniProt Q8NC51), the “log2 ratio” value is inactive: 0.291.
As for UniProt Q8NFC6_C74, the figure is inactive: 0.234; as for ATXN2L C58 (UniProt Q8WWM7), inactive: 0.0836.
The same measure for XRN1 C1450 (UniProt Q8IZH2): inactive: -0.00444; for ZNF687 C91 (UniProt Q8N1G0): inactive: 0.202.
The same measure for PPP4R1 C645 (UniProt Q8TF05): inactive: 0.191.
With EXOC6 C66 (UniProt Q8TAG9), the “log2 ratio” value is inactive: -0.236.
